Data on two molecules can be found in PMC9508527, “Two-component carnitine monooxygenase from Escherichia coli: functional characterization, inhibition and mutagenesis of the molecular interface” (Bioscience Reports, 2022).

Results are given in words; binding and its absence hold for the method and conditions named.

Test [1] addresses T1, YeaX, reductase component of carnitine monooxygenase from E. coli (E. coli) (UniProt P76254).
T1 sequence: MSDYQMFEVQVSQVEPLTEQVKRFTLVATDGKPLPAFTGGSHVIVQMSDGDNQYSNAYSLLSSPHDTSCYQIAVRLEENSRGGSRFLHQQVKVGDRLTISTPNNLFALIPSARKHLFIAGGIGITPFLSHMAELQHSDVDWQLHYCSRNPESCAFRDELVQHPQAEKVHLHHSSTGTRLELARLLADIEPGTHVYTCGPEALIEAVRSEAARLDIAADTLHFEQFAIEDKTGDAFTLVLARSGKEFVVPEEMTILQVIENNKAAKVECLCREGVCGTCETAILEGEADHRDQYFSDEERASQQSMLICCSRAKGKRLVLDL
The test can be described thus: pull-down; protein-protein interaction experiments with immobilized YeaX (or YeaW); high concentrations of L-carnitine and NADH, in the absence of molecular oxygen; both purified.

Test [2] has as its target T1, YeaX, reductase component of carnitine monooxygenase from E. coli (E. coli). The test can be described thus: SEC; analytical gel filtration, Superdex 200 increase 5/150 GL, 10 mM Hepes-NaOH pH 7.5, 150 mM NaCl, 0.45 ml min^-1, 20 µl samples (~300 µM), calibrated with protein standards; both purified. Background: In gel filtration, larger molecules generally elute earlier.

Test [3] concerns the target T2, YeaW, Rieske-type oxygenase component of carnitine monooxygenase from E. coli (E. coli) (UniProt P0ABR7).
T2 sequence: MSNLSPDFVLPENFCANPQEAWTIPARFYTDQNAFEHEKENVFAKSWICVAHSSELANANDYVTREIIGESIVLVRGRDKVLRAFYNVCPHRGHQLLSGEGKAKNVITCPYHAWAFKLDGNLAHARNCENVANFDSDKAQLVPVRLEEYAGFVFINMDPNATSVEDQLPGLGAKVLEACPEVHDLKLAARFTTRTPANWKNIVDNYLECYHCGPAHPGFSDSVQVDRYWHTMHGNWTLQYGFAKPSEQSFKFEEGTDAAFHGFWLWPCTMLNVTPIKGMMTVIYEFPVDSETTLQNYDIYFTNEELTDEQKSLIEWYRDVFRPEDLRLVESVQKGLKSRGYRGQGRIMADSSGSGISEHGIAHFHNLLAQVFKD
The test can be described thus: pull-down; protein-protein interaction experiments with immobilized YeaX (or YeaW); high concentrations of L-carnitine and NADH, in the absence of molecular oxygen; both purified.

B1: YeaW, Rieske-type oxygenase component of carnitine monooxygenase from E. coli (enzyme, UniProt P0ABR7 1-374, looked up)
chain: T2 sequence
notes: primers run from the start to the stop codon; No cleavage of the tag is described; calculated molecular mass 45,463 Da; Carries a Rieske-type [2Fe-2S] cluster and a mononuclear [Fe] center; also called oxygenase YeaW; catalytic unit YeaW
Take B1: the binding entry in test [1] is recorded as “no binding”.

B2: YeaX, reductase component of carnitine monooxygenase from E. coli (enzyme, UniProt P76254 1-321, looked up)
chain: T1 sequence
In the case of B2, the binding result is “no binding (tested: ~300 µM (20 µl injected))” in test [2] and “no binding” in test [3].
